Experimental data taken from US20250281517A1, “SENOLYSIS BY AMMONIA-LOWERING COMPONENT” (TAZ Inc., priority 2022, published 2025).

Columns and labels:
[1] = test system: p21; assay: mRNA expression level of p21, a marker of senescent cells, in tissues of aged mice (real-time RT-PCR, GAPDH as internal standard); assay type: in vivo; details: aged male C57BL/6J mice (78 weeks old), test substance in drinking water ad libitum for one month, compared to aged mice having no additional administration, FIG. 2, upper panel
Protocol: (§1) As animals, experiments was performed using 7 young mice (male C57BL/6J mice, 7 weeks old) and 28 aged mice (male C57BL/6J-Aged mice, 78 weeks old).
(§2) Group 1 was constituted of young mice, and aged mice were divided into 4 groups each consisting of 7 mice (Groups 2 to 5) and the experimental conditions of individual groups are set as shown in the Table below.
(§3) As explained below, water comprising a test substance was given to the mice of Group 3 to Group 5.
(§4) The each types of drinking water which were prepared by adding a test substance as mentioned above was given to mice of each of the groups ad libitum, and the test substance was orally administered for one month. One month after the initiation of the experiment, all mice were sacrificed and dissected. […]
(§5) The RNA was purified with 75% ethanol, evaporated to dry under reduced pressure, and dissolved in 50 micro l of RNA-free water. Using NanoDrop ND-1000 (NanoDrop Technologies), absorbance was measured at 260 nm and 280 nm to determination of an absorbance ratio (A260/280 nm), RNA purity was confirmed by checking whether or not the absorbance ratio falls within the range of 1.9 to 2.1.
(§6) Quantitative real-time PCR was performed using total RNA extracted from the tissue for analysis of mRNA expressions of senescence markers p16 and p21 commonly known in the technical field. […]

[2] = test system: p16; assay: mRNA expression level of p16, a marker of senescent cells, in tissues of aged mice (real-time RT-PCR, GAPDH as internal standard); assay type: in vivo; details: aged male C57BL/6J mice (78 weeks old), test substance in drinking water ad libitum for one month, compared to aged mice having no additional administration, FIG. 2, lower panel
Protocol: as §1, §2, §3, §4, §5, §6

## Cl.NCCC[C@H](N)C(=O)O [ornithine, L-ornithine hydrochloride]
[1]
  mRNA expression level of marker p21 for senescent cells in the liver: tended to decrease
[2]
  mRNA expression level of marker p16 for senescent cells in the liver: tended to decrease
